The supplement of paper PMC3682954
Values joined by “and” are separate entries in the source; they are usually repeats but may differ in a detail not shown here. Identical values can stand only once. Counter-ions that a name gives are not always drawn. ± gives the standard deviation of the averaged measurements. The list shows a part of the results. Single values are uncertain, as repeats are few or missing.

Tested on: RAW 264.7
Assay: HMGB1-induced TNF-alpha production relative to HMGB1-stimulated control; higher = more TNF-alpha secretion (less inhibition)
Conditions: stimulus: HMGB1 5 ug/ml, 18 h
[1] = compound concentration: 1 ug/ml

Row | Compound | HMGB1-induced TNF-alpha production (compound concentration: 3 uM) | HMGB1-induced TNF-alpha production [1] [%]
1 | O=C1Cc2c([nH]c3ccc(Br)cc23)-c2ccccc2N1 [Kenpaullone] | 134% | –
2 | CO/N=C(\C(=O)N[C@@H]1C(=O)N2C(C(=O)[O-])=C(C[N+]3(C)CCCC3)CS[C@H]12)c1csc(N)n1 [Cefepime] | 116% | –
3 | Cc1coc2c1C(=O)C(=O)c1c-2ccc2c1CCCC2(C)C [Tanshinone IIA] | 75.7% | –
4 | Cc1coc2c1C(=O)C(=O)c1c-2ccc2c1CCCC2(C)C | 88.9% | –
5 | C[C@]12C=CC(=O)C=C1CC[C@H]1[C@@H]3C[C@@H](O)[C@](O)(C(=O)CO)[C@@]3(C)C[C@H](O)[C@@]12F [Triamcinolone] | 40.1 ± 9.6% | –
6 | C[C@]12C=CC(=O)C=C1CC[C@H]1[C@@H]3C[C@@H](O)[C@](O)(C(=O)CO)[C@@]3(C)C[C@H](O)[C@@]12F | 49.1% | –
7 | CC1(C)O[C@@H]2C[C@H]3[C@@H]4CCC5=CC(=O)CC[C@]5(C)[C@@]4(F)[C@@H](O)C[C@]3(C)[C@]2(C(=O)CCl)O1 [Halcinonide] | 45.5% | –
8 | CC1(C)O[C@@H]2C[C@H]3[C@@H]4CCC5=CC(=O)CC[C@]5(C)[C@@]4(F)[C@@H](O)C[C@]3(C)[C@]2(C(=O)CCl)O1 | 49.1% | –
9 | COc1cc(/C=C/C(=O)N2CCCCC2=O)cc(OC)c1OC | – | 31.8
10 | CCN(CC)C(=O)/C(C#N)=C/c1cc(O)c(O)c([N+](=O)[O-])c1 [Entacapone] | 134 ± 19% | –
11 | C[C@@H]1O[C@@H](OC[C@H]2O[C@@H](Oc3c(-c4ccc(OCCO)c(OCCO)c4)oc4cc(OCCO)cc(O)c4c3=O)[C@H](O)[C@@H](O)[C@@H]2O)[C@H](O)[C@H](O)[C@H]1O | 80.1% | –
12 | CCCCCCCC/C=C\CCCCCCCC(=O)NCCO [N-Oleoylethanolamine] | 91.4% | –
13 | C[C@@H](O)[C@H]1C(=O)N2C(C(=O)O)=C(S[C@@H]3CN[C@H](C(=O)N(C)C)C3)[C@H](C)[C@H]12 | 108% | –
14 | C[C@@H](O)[C@H]1C(=O)N2C(C(=O)O)=C(S[C@@H]3CN[C@H](C(=O)N(C)C)C3)[C@H](C)[C@H]12 [Meropenem] | 106 ± 24% | –
15 | Cc1cc(C)cc(OCC2CNC(=O)O2)c1 (stereo not drawn) | 82.2% | –
16 | CC(=O)O[C@H]1C[C@@H]2CC[C@@H]3[C@H](CC[C@@]4(C)[C@H]3C[C@H]([N+]3(C)CCCCC3)[C@@H]4OC(C)=O)[C@@]2(C)C[C@@H]1N1CCCCC1 [Vecuronium] | 79.7% | –
17 | CC(=O)O[C@H]1C[C@@H]2CC[C@@H]3[C@H](CC[C@@]4(C)[C@H]3C[C@H]([N+]3(C)CCCCC3)[C@@H]4OC(C)=O)[C@@]2(C)C[C@@H]1N1CCCCC1 [Vecuronium bromide] | 119% | –
18 | CC(=O)O[C@H]1C[C@@H]2CC[C@@H]3[C@H](CC[C@@]4(C)[C@H]3C[C@H]([N+]3(C)CCCCC3)[C@@H]4OC(C)=O)[C@@]2(C)C[C@@H]1N1CCCCC1 | 99 ± 4.6% | –
19 | C[C@H]1O[C@@H](n2cc(F)c(=O)[nH]c2=O)[C@H](O)[C@@H]1O | 75.7% | –
20 | C[C@H]1O[C@@H](n2cc(F)c(=O)[nH]c2=O)[C@H](O)[C@@H]1O [Doxifluridine] | 91.4% | –
21 | C[C@H]1O[C@@H](n2cc(F)c(=O)[nH]c2=O)[C@H](O)[C@@H]1O [5-fluoro-5'-deoxyuridine] | 93.4% | –
22 | Clc1ccc(C(c2ccc(Cl)cc2)[n+]2ccn(CC(OCc3ccc(Cl)cc3Cl)c3ccc(Cl)cc3Cl)c2)cc1 (stereo not drawn) [Calmidazolium chloride] | 76.5% | –
23 | O=c1c(-c2ccc(O)cc2)coc2cc(O)ccc12 | – | 65.3
24 | O=c1c(-c2ccc(O)cc2)coc2cc(O)ccc12 [Daidzein] | 94.7% | –
25 | CC(C)NC[C@H](O)COc1cccc2ccccc12 [Propranolol S(-)] | 102% | –
26 | CC(C)NC[C@H](O)COc1cccc2ccccc12 [(S)-propranolol hydrochloride] | 111% | –

Row | Compound | HMGB1-induced TNF-alpha production (compound concentration: 3 uM) | HMGB1-induced TNF-alpha production [1] [%]
27 | CC(C)NC[C@H](O)COc1cccc2ccccc12 [(S)-Propranolol hydrochloride] | 91.9% | –
28 | CC1(C)CC[C@]2(C(=O)O)CC[C@]3(C)C(=CC[C@@H]4[C@@]5(C)CC[C@H](O)C(C)(C)[C@@H]5CC[C@]43C)[C@@H]2C1 [Oleanolic acid; oleanol;  caryophyllin] | – | 73.3
29 | CN1C(=O)OC(C)(C)C1=O | 91.4% | –
30 | CN1C(=O)OC(C)(C)C1=O [Trimethadione] | 59.8% | –
31 | CC(=O)CCCCn1c(=O)c2c(ncn2C)n(C)c1=O [Pentoxifylline] | 100 ± 15% | –
32 | CC(=O)CCCCn1c(=O)c2c(ncn2C)n(C)c1=O | 81.3% | –
33 | CC(=O)O[C@@H]1C[C@]2(C)[C@@H](C(C)=O)CC[C@H]2[C@@H]2CCC3=CC(=O)CC[C@]3(C)[C@H]21 [11-alpha-Acetoxyprogesterone] | – | 59.4
34 | CN(C/C=C/c1ccccc1)Cc1cccc2ccccc12 [Naftifine hydrochloride] | 108% | –
35 | OCCN1CCN(CCCN2c3ccccc3C=Cc3ccccc32)CC1 [Opipramol dihydrochloride] | 88.9 ± 1.9% | –
36 | O=C(O)C=C1CCCc2ccccc2C1O (stereo not drawn) | 121% | –
37 | CN(C)CCCSC(=N)N [Dimaprit dihydrochloride] | 98.5% | –
38 | CCCC(CCC)C(=O)O[C@H]1C[C@H]2CC[C@@H](C1)[N+]2(C)C [Anisotropine methyl bromide] | 101% | –
39 | NCCNCCNCCN | 93.7% | –
40 | Cc1onc(-c2c(F)cccc2Cl)c1C(=O)N[C@@H]1C(=O)N2[C@@H]1SC(C)(C)[C@@H]2C(=O)O [Flucloxacillin sodium] | 90% | –
41 | O=C(CCc1ccc(O)cc1)c1c(O)cc(O)cc1O[C@@H]1OC(CO)[C@@H](O)[C@@H](O)C1O (stereo partly drawn) [Phloridzin] | 106% | –
42 | Cc1c(C(=O)O)c(O)cc2c1C(=O)c1c(O)c([C@H]3O[C@H](CO)[C@@H](O)[C@H](O)[C@H]3O)c(O)c(O)c1C2=O | – | 68.7
43 | O=C(NCCN1CCOCC1)c1ccc(Cl)cc1 [4-Chloro-N-(2-morpholin-4-yl-ethyl)-benzamide] | 118% | –
44 | O=C(NCCN1CCOCC1)c1ccc(Cl)cc1 [Moclobemide] | 97.6 ± 30% | –
45 | COc1c(C)c2c(c(O)c1C/C=C(\C)CCC(=O)O)C(=O)OC2 [Mycophenolic acid] | – | -9.9
46 | COc1c(C)c2c(c(O)c1C/C=C(\C)CCC(=O)O)C(=O)OC2 | 25.4 ± 3.3% | –
47 | COc1c(C)c2c(c(O)c1C/C=C(\C)CCC(=O)O)C(=O)OC2 [Mycophenolic Acid] | 17.8% | –
48 | O=C(O)c1ccc(S(=O)(=O)N(Cl)Cl)cc1 | 90.1% | –
49 | O=C(Oc1ccccc1C(=O)O)c1ccccc1O | 84.4% | –
50 | CCCCCNC(=N)N/N=C/c1c[nH]c2ccc(OC)cc12 | 96.1% | –
51 | NS(=O)(=O)c1cc(Cl)c(Cl)c(S(N)(=O)=O)c1 [Dichlorphenamide] | 111% | –
52 | CCN1CCCC(OC(=O)C(c2ccccc2)c2ccccc2)C1 (stereo not drawn) [Piperidolate hydrochloride] | 130% | –

Row | Compound | HMGB1-induced TNF-alpha production (compound concentration: 3 uM) | HMGB1-induced TNF-alpha production [1] [%]
53 | CCN1CCCC(OC(=O)C(c2ccccc2)c2ccccc2)C1 (stereo not drawn) | 97% | –
54 | Nc1ccc(C(=O)O)cc1 | 43% | –
55 | Cc1ccc2oc(-c3ccccc3)c(O)c(=O)c2c1 [6-Methylflavonol] | – | 77.5
56 | COc1cc(C(O)CO)ccc1OS(=O)(=O)O (stereo not drawn) [MHPG sulfate potassium] | 101% | –
57 | COC(=O)c1c(C)[nH]c(C)c1C(=O)c1ccccc1Cc1ccccc1 | 90.6% | –
58 | Nc1cn([C@@H]2O[C@H](CO)[C@H](O)C2O)c(=O)[nH]c1=O (stereo partly drawn) [5-Aminouridine hydrochloride] | – | 81.1
59 | CCCC1O[C@@H]2C[C@H]3[C@@H]4CCC5=CC(=O)C=C[C@]5(C)[C@H]4[C@@H](O)C[C@]3(C)[C@]2(C(=O)CO)O1 (stereo partly drawn) [Budesonide] | 34 ± 10% | –
60 | CCCC1O[C@@H]2C[C@H]3[C@@H]4CCC5=CC(=O)C=C[C@]5(C)[C@H]4[C@@H](O)C[C@]3(C)[C@]2(C(=O)CO)O1 (stereo partly drawn) | 39.4% | –
61 | NCCC1CCCC(CCN)N1 (stereo not drawn) [MDL 26,630 trihydrochloride] | 119% | –
62 | CCCCCCCCCCCCCCCCCCOCC(COP(=O)([O-])OCC[N+](C)(C)C)OC (stereo not drawn) | 112% | –
63 | CN1[C@@H]2CC[C@H]1CC(OC(=O)c1c[nH]c3ccccc13)C2 (stereo partly drawn) [3-Tropanyl-indole-3-carboxylate hydrochloride] | 100% | –
64 | COc1ccc(-c2oc3ccc(C)cc3c(=O)c2O)cc1OC [3',4'-Dimethoxy-3-hydroxy-6-methylflavone] | – | 52.7
65 | CC[C@H](NC(=O)c1c(C)c(-c2ccccc2)nc2ccccc12)c1ccccc1 | 96.6% | –
66 | COc1cc(/C=C/c2ccc(O)cc2)cc(OC)c1 | 92.5% | –
67 | NCC(O)(CS(=O)(=O)O)c1ccc(Cl)cc1 (stereo not drawn) [2-Hydroxysaclofen] | 104% | –
68 | O=NN(CCCl)C(=O)NCCCl [Carmustine] | 77.8% | –
69 | O=NN(CCCl)C(=O)NCCCl | 103 ± 21% | –
70 | CCOC(=O)c1ncn2c1CN(C)C(=O)c1cc(F)ccc1-2 | 102% and 90.7% | –
71 | CCOC(=O)c1ncn2c1CN(C)C(=O)c1cc(F)ccc1-2 [Flumazenil] | 90.2 ± 2.9% | –
72 | CC1=C(/C=C/C(C)=C/C=C/C(C)=C/C=C/C=C(C)/C=C/C=C(C)/C=C/C2=C(C)C(=O)CCC2(C)C)C(C)(C)CCC1=O [Canthaxanthin] | 108% | –
73 | O=C1O/C(=C/Br)CCC1c1cccc2ccccc12 (stereo not drawn) [Bromoenol lactone] | 27.4% | –
74 | Nc1nc(N)c2nc(CNc3ccc(C(=O)N[C@@H](CCC(=O)O)C(=O)O)cc3)cnc2n1 | 72.3% | –
75 | Nc1nc(N)c2nc(CNc3ccc(C(=O)N[C@@H](CCC(=O)O)C(=O)O)cc3)cnc2n1 [Aminopterin] | 90.1% | –
76 | N[C@@H](CSCC(=O)O)C(=O)O [S-Carboxymethyl-L-cysteine] | – | 72.5
77 | CC(C(=O)O)c1cccc(C(=O)c2ccccc2)c1 (stereo not drawn) | 82.6% | –
78 | CC(C(=O)O)c1cccc(C(=O)c2ccccc2)c1 (stereo not drawn) [Ketoprofen] | 94.7 ± 12% | –
